Laboratory results as given in article PMC5302977.
No constants are given. Whether binding was seen depends on the method and setting. Binding seen in cells or lysates may run through a third protein. Some binding calls cover weakened binding; strength is not graded here.

Protein sequences, listed by entry. Tags and fused reporters are not part of them.
UniProt O14746: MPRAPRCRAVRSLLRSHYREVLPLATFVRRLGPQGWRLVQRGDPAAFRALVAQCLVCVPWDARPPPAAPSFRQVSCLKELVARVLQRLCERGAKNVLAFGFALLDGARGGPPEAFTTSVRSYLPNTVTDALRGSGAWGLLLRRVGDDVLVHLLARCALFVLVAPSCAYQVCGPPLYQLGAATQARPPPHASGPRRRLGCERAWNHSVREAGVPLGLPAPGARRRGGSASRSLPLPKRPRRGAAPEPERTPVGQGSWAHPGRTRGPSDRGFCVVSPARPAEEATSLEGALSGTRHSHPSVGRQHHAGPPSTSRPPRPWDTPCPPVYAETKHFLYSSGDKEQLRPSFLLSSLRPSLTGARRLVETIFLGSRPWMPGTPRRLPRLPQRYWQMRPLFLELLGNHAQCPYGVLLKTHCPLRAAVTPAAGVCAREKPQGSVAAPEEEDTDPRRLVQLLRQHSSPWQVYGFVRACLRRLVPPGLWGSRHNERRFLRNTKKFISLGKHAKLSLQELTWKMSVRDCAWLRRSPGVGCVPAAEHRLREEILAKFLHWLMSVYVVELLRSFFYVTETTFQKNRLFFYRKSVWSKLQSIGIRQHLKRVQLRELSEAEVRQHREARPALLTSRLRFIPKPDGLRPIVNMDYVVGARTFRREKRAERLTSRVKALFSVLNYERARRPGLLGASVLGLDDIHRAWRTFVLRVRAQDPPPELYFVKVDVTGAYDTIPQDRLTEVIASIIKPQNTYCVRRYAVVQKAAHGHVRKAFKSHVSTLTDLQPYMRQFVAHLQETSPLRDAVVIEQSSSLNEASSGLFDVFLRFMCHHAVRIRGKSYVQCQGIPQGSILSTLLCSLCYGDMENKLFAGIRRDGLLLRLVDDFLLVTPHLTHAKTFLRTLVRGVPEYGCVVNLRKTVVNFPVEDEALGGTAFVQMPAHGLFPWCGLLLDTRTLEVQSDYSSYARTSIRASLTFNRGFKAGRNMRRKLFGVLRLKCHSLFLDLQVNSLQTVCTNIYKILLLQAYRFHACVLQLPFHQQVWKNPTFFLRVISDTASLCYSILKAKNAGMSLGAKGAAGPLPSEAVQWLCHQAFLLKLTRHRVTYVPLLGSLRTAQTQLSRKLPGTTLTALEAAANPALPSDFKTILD
UniProt P17931: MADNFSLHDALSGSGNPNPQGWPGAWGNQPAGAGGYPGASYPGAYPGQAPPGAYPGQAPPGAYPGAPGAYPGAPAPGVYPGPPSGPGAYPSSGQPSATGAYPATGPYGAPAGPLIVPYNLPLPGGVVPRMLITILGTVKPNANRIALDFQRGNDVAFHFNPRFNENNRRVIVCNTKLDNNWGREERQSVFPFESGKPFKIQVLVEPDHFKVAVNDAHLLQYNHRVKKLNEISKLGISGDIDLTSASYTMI

Target: HA-hTERT (human Telomerase Reverse Transcriptase) (human) (UniProt O14746)
Test: co-IP; HEK293 cells co-transfected with Flag-galectin-3 constructs and HA-hTERT; lysate with 750 ug protein pre-cleared, incubated with 1 ug anti-HA or anti-FLAG overnight at 4°C, protein-A/G agarose beads, washed 3 times in RIPA buffer; Western blot; mouse IgG as negative control

binding: binds
Substance: Flag-galectin-3 (1-250 aa, full length) (from UniProt P17931 1-250)
